# Test results from the supplement of paper PMC5836539.
# Protein sequences, listed by entry. Tags and fused reporters are not part of them. Lines headed by an entry give the natural chain unless they say otherwise; changes in a name come on top.
# UniProt Q13541: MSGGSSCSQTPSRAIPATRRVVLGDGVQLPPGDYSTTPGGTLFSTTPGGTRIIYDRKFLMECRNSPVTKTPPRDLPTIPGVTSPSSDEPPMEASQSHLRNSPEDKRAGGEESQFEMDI
# UniProt Q14258, whole entry, looked up: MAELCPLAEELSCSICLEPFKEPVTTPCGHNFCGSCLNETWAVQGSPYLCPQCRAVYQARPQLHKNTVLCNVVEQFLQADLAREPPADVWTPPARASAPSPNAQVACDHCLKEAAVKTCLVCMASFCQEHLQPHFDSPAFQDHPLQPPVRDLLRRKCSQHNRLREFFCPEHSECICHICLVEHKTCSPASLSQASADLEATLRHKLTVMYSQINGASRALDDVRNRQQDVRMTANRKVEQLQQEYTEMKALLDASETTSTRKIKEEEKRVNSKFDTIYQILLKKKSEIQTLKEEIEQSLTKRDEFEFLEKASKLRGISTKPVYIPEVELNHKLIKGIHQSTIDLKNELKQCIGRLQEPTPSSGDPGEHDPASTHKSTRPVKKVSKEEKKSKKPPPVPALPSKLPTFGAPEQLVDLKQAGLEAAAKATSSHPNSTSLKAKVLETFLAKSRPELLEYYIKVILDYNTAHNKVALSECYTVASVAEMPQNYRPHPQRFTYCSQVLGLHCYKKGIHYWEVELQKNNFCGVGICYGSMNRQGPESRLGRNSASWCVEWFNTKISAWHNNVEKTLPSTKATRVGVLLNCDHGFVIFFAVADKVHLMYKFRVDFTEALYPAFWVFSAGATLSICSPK
# UniProt Q2TB10: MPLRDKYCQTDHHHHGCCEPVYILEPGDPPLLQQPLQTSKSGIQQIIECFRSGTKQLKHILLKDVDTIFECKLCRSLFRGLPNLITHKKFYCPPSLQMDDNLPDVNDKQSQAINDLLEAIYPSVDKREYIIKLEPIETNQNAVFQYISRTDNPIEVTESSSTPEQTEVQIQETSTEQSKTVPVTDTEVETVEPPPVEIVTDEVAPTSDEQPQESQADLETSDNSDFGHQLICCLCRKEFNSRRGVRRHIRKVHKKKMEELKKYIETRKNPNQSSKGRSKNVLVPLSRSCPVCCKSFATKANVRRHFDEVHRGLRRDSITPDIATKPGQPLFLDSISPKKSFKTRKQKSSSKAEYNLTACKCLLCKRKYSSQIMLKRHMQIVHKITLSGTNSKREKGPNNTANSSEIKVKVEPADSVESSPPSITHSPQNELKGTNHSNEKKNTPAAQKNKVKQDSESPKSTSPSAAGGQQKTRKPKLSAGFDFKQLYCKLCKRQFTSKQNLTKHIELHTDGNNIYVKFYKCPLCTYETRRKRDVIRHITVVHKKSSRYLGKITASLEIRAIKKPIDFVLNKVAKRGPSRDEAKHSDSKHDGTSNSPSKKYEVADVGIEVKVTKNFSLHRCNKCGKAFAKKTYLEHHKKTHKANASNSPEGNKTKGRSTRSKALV
# UniProt Q13769: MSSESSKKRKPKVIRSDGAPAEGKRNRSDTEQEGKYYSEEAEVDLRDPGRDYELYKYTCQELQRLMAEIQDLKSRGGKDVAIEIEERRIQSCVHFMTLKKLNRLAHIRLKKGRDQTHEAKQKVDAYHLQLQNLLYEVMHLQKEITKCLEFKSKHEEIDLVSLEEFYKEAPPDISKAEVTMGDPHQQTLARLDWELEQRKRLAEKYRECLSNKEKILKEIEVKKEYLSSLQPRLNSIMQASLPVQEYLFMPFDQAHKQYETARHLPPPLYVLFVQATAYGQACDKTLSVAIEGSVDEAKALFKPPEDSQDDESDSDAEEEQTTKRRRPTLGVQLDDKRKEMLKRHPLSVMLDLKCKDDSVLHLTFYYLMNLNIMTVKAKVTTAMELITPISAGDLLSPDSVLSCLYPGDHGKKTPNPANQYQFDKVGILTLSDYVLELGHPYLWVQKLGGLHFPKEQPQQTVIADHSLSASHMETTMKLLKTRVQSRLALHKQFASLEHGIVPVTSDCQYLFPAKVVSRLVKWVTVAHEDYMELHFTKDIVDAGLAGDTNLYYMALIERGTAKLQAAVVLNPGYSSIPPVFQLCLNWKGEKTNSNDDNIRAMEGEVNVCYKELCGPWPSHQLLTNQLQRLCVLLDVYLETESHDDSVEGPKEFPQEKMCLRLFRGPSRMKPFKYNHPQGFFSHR
# UniProt Q9P206: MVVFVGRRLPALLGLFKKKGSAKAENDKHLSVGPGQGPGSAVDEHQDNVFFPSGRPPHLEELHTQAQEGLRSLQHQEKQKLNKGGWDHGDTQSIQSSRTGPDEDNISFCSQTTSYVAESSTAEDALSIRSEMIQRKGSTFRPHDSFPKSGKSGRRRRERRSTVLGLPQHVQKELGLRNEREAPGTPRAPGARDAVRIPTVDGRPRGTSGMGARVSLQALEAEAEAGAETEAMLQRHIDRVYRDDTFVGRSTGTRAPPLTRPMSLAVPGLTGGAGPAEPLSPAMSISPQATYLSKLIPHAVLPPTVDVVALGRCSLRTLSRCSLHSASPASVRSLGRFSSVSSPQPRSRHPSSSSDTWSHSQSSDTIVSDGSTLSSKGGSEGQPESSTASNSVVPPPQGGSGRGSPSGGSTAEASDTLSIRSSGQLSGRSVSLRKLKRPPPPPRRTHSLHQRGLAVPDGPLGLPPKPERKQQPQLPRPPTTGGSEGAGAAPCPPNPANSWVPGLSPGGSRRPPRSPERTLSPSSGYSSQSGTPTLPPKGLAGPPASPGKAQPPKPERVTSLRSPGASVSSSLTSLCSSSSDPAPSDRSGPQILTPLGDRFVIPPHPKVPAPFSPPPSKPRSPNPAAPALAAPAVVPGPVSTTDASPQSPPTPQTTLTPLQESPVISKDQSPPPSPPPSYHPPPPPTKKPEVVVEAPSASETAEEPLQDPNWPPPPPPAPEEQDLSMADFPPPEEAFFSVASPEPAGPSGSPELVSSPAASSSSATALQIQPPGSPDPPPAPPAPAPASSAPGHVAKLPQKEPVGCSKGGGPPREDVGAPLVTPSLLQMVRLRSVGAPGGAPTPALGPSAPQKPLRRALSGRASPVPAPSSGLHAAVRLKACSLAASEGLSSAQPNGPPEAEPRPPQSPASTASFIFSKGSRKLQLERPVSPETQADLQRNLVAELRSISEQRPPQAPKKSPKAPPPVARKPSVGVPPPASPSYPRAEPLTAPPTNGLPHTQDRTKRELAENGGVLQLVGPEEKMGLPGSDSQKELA
# UniProt P23497: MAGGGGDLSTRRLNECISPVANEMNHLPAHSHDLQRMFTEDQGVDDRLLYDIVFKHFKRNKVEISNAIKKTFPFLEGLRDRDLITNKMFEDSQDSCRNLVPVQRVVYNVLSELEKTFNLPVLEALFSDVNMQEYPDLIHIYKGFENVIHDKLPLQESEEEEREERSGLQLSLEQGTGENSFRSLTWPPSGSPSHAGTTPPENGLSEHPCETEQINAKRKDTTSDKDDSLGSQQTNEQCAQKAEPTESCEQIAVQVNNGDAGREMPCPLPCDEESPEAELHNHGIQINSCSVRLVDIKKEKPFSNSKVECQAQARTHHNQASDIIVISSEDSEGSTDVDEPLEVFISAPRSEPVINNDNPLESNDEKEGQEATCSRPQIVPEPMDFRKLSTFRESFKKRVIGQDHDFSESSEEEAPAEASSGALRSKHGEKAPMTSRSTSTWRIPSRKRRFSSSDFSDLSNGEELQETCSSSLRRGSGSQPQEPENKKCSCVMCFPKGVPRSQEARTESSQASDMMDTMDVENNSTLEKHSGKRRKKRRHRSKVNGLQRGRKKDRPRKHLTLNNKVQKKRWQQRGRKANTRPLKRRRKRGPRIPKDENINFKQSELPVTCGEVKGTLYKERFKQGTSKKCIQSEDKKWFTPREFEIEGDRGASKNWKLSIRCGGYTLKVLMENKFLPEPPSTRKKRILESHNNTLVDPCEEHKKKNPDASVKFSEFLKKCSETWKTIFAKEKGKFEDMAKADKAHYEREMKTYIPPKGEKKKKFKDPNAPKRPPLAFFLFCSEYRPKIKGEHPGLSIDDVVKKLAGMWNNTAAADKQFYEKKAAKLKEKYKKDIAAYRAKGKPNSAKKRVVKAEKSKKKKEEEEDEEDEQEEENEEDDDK
# UniProt Q3YEC7: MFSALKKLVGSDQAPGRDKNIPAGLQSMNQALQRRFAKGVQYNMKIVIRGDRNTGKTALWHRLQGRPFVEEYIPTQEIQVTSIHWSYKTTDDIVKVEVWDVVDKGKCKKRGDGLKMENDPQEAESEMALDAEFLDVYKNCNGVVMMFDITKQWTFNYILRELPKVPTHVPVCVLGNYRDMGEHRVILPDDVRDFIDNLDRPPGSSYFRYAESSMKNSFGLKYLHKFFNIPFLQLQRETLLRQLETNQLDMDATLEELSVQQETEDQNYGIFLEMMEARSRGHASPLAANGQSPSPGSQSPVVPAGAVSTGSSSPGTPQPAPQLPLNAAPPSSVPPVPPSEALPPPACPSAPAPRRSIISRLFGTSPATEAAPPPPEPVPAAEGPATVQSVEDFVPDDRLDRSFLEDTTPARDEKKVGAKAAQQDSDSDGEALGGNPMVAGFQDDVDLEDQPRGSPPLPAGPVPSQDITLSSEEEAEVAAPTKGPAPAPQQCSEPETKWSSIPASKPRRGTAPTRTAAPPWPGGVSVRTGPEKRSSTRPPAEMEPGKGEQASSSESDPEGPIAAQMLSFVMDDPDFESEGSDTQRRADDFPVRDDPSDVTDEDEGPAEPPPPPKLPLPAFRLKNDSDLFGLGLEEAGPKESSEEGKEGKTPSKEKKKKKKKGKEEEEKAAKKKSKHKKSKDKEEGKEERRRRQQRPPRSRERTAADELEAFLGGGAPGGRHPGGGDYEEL
# UniProt Q6ZSR9: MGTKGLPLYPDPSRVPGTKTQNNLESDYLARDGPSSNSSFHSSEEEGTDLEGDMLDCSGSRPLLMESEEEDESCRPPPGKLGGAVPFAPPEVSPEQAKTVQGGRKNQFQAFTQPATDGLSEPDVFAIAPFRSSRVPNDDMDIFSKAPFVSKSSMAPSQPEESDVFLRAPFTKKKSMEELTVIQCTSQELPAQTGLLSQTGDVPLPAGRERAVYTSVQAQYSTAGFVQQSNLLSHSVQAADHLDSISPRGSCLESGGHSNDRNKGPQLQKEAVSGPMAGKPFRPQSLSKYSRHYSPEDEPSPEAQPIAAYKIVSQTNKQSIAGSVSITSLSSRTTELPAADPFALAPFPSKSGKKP
# UniProt Q9UJ70, whole entry: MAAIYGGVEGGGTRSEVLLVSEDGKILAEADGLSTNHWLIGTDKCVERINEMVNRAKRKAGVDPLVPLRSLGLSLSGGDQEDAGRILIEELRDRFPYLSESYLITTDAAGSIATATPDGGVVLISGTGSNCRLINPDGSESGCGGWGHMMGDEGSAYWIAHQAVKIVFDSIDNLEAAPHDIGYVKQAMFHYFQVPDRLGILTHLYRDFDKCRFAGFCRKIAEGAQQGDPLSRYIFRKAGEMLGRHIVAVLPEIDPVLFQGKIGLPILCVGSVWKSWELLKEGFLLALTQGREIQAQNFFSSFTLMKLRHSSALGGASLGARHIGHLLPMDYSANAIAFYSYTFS
# UniProt Q15435: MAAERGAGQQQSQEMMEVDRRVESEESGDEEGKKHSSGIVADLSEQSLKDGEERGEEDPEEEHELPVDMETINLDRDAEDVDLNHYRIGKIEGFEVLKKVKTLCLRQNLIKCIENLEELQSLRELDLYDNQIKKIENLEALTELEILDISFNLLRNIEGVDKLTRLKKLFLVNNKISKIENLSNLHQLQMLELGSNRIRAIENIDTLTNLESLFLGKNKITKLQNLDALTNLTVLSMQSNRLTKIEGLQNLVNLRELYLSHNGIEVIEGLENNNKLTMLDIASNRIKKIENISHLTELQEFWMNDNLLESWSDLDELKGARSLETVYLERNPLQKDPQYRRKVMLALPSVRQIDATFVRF
# UniProt P83916, whole entry, looked up: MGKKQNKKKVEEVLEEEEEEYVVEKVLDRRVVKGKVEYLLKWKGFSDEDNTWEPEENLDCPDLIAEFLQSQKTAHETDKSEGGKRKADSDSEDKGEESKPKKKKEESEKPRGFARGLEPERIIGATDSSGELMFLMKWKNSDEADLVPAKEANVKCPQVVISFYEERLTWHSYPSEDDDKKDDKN
# UniProt Q9HCD5: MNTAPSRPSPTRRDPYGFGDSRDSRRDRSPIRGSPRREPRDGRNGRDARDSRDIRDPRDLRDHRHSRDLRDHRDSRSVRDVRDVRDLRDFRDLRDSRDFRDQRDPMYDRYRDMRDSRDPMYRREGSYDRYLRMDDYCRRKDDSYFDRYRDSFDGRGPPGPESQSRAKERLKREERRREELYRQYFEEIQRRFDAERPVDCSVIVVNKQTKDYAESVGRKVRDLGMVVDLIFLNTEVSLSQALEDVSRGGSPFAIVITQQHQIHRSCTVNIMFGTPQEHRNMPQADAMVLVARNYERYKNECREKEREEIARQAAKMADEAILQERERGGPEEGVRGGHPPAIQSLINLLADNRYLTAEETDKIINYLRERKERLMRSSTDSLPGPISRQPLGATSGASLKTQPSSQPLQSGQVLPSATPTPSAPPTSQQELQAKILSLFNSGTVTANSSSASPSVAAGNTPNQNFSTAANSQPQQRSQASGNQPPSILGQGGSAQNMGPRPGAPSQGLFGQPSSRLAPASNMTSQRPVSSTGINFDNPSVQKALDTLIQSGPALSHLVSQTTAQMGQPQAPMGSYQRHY
# ± gives the standard deviation of the averaged measurements. Single values are uncertain here, since repeats match poorly.
# Compound: CC[C@@H](C)Nc1cc(C(=O)N[C@H]2C[C@H]3CC[C@@H](C2)N3c2ccc(C(=O)C3CC3)cn2)c(C)cc1C(N)=O [XL888]
# Test: phosphopeptide melting temperature shift (XL888 minus DMSO); higher = stabilised by drug treatment
# Settings: 100 µM; treatment time 2 h; layout: intact cells; SK-Mel 28
# Procedure: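 Phospho-TPP in intact SK-Mel 28 cells treated with 100 uM XL888 or DMSO for 2 h, heated at 10 temperatures (37-67 C) for 3 min, soluble fraction TMT10plex-labelled and TiO2 phospho-enriched. Melting curves were fitted per phosphopeptide; the value is the melting point difference (drug minus vehicle) in each of two biological replicates.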
row,Target,phosphopeptide melting temperature shift
1,UniProt Q8WYQ5-3_phosphosite_271 (phosphosite position: 271),1.92 °C
2,RRAGC phosphosite_95 (phosphosite position: 95) (UniProt Q9HB90),-3.2 ± 0.67 °C
3,UniProt O94979-3_phosphosite_532 (phosphosite position: 532),0.822 ± 2 °C
4,UniProt O94874-2_phosphosite_393 (phosphosite position: 393),0.861 ± 0.83 °C
5,UniProt Q86X95_phosphosite_202 (phosphosite position: 202),-0.464 ± 1.4 °C
6,EIF4EBP1 phosphosite_46 (phosphosite position: 46) (UniProt Q13541),-1.47 °C
7,TRIM25 phosphosite_435 (phosphosite position: 435) (UniProt Q14258),2.59 °C
8,PXN phosphosite_137 (phosphosite position: 137) (UniProt P49023),2.6 °C
9,UniProt O94842-3_phosphosite_156 (phosphosite position: 156),0.478 °C
10,SRRM2 phosphosite_486 (phosphosite position: 486) (UniProt Q9UQ35),0.431 °C
11,JPH1 phosphosite_479 (phosphosite position: 479) (UniProt Q9HDC5),0.862 ± 1.9 °C
12,GNL1 phosphosite_51 (phosphosite position: 51) (UniProt P36915),-1.35 ± 0.71 °C
13,ARFGEF2 phosphosite_614 (phosphosite position: 614) (UniProt Q9Y6D5),-0.457 ± 0.86 °C
14,EP300 phosphosite_1038 (phosphosite position: 1038) (UniProt Q09472),-1.68 °C
15,UniProt P35580-2_phosphosite_1968 (phosphosite position: 1968),0.445 ± 0.7 °C
16,UniProt P61978-2_phosphosite_116 (phosphosite position: 116),-5.17 °C
17,UniProt Q9NTJ3-2_phosphosite_22 (phosphosite position: 22),-0.192 ± 0.37 °C
18,YBX1 phosphosite_167 (phosphosite position: 167) (UniProt P67809),-0.0272 °C
19,UBE2O phosphosite_839 (phosphosite position: 839) (UniProt Q9C0C9),-1.68 °C
20,TNS1 phosphosite_915 (phosphosite position: 915) (UniProt Q9HBL0),0.434 ± 0.99 °C
21,NCBP1 phosphosite_7 (phosphosite position: 7) (UniProt Q09161),2.48 °C
22,UniProt Q86W92-2_phosphosite_449 (phosphosite position: 449),0.904 °C

row,Target,phosphopeptide melting temperature shift
1,GTF2F1 phosphosite_221 (phosphosite position: 221) (UniProt P35269),-1.47 °C
2,ZNF800 phosphosite_595 (phosphosite position: 595) (UniProt Q2TB10),-1.5 °C
3,UniProt O43314-2_phosphosite_38 (phosphosite position: 38),0.496 ± 1.1 °C
4,ZFR phosphosite_1054 (phosphosite position: 1054) (UniProt Q96KR1),2.05 ± 0.98 °C
5,THOC5 phosphosite_312 (phosphosite position: 312) (UniProt Q13769),0.698 ± 0.51 °C
6,MYO18A phosphosite_1067 (phosphosite position: 1067) (UniProt Q92614),0.556 °C
7,KIAA1522 phosphosite_669 (phosphosite position: 669) (UniProt Q9P206),1.46 ± 0.4 °C
8,SP100 phosphosite_409 (phosphosite position: 409) (UniProt P23497),2.94 ± 1.4 °C
9,CAPG phosphosite_212 (phosphosite position: 212) (UniProt P40121),-0.795 °C
10,UniProt Q3YEC7_phosphosite_640 (phosphosite position: 640),0.0774 ± 1.3 °C
11,THOP1 phosphosite_16 (phosphosite position: 16) (UniProt P52888),1.09 °C
12,HIRIP3 phosphosite_223 (phosphosite position: 223) (UniProt Q9BW71),1.63 °C
13,CEP170 phosphosite_359 (phosphosite position: 359) (UniProt Q5SW79),0.0461 ± 1 °C
14,UniProt Q9BUB5-3_phosphosite_180 (phosphosite position: 180),0.352 ± 0.44 °C
15,UniProt Q5JSH3-2_phosphosite_50 (phosphosite position: 50),2.05 ± 0.51 °C
16,UniProt Q8WWI1-3_phosphosite_654 (phosphosite position: 654),0.715 ± 1.2 °C
17,HIRIP3 phosphosite_530 (phosphosite position: 530) (UniProt Q9BW71),5.39 °C
18,STAMBPL1 phosphosite_242 (phosphosite position: 242) (UniProt Q96FJ0),0.488 °C
19,UniProt Q6ZSR9_phosphosite_93 (phosphosite position: 93),-0.432 ± 0.13 °C
20,UniProt Q9Y3M8-5_phosphosite_125 (phosphosite position: 125),0.569 ± 0.55 °C
21,NAGK phosphosite_76 (phosphosite position: 76) (UniProt Q9UJ70),1.58 °C
22,EIF3B phosphosite_154 (phosphosite position: 154) (UniProt P55884),0.144 °C

row,Target,phosphopeptide melting temperature shift
1,PPP1R7 phosphosite_24 (phosphosite position: 24) (UniProt Q15435),0.581 ± 1.1 °C
2,BRD4 phosphosite_1117 (phosphosite position: 1117) (UniProt O60885),-5.45 °C
3,UniProt Q9NYV4-2_phosphosite_681 (phosphosite position: 681),-0.222 ± 0.32 °C
4,ZC3H4 phosphosite_92 (phosphosite position: 92) (UniProt Q9UPT8),-0.0137 °C
5,SRRM1 phosphosite_574 (phosphosite position: 574) (UniProt Q8IYB3),-7.05 ± 5.4 °C
6,HSP90AB1 phosphosite_261 (phosphosite position: 261) (UniProt P08238),4.21 °C
7,SRRM2 phosphosite_1727 (phosphosite position: 1727) (UniProt Q9UQ35),5.91 °C
8,ARHGEF5 phosphosite_184 (phosphosite position: 184) (UniProt Q12774),0.221 °C
9,UniProt O43166-3_phosphosite_1564 (phosphosite position: 1564),2.98 ± 0.62 °C
10,SF3B2 phosphosite_435 (phosphosite position: 435) (UniProt Q13435),4.51 °C
11,UniProt Q709C8-3_phosphosite_3598 (phosphosite position: 3598),3.97 °C
12,SMARCC1 phosphosite_328 (phosphosite position: 328) (UniProt Q92922),1.65 ± 2.4 °C
13,UniProt Q15649-2_phosphosite_80 (phosphosite position: 80),0.204 °C
14,ABCF1 phosphosite_108 (phosphosite position: 108) (UniProt Q8NE71),-0.903 °C
15,UniProt P83916_phosphosite_175 (phosphosite position: 175),3.52 ± 1.1 °C
16,MPRIP phosphosite_220 (phosphosite position: 220) (UniProt Q6WCQ1),1.45 °C
17,UniProt Q92974-3_phosphosite_913 (phosphosite position: 913),2.33 ± 0.94 °C
18,RAD9A phosphosite_375 (phosphosite position: 375) (UniProt Q99638),3.47 °C
19,ACACA phosphosite_1259 (phosphosite position: 1259) (UniProt Q13085),-0.282 °C
20,FXR2 phosphosite_603 (phosphosite position: 603) (UniProt P51116),4.54 °C
21,NCOA5 phosphosite_34 (phosphosite position: 34) (UniProt Q9HCD5),2.55 °C
22,UniProt Q5VZK9-2_phosphosite_1270 (phosphosite position: 1270),4.99 °C
